Test results: the supplement of paper PMC10849652
This is one part of the list.

The chains behind the UniProt entries cited, without tags or fusion partners. Where a name states a change or a piece, a line headed by the entry shows the natural chain unless it says otherwise.
UniProt O43240: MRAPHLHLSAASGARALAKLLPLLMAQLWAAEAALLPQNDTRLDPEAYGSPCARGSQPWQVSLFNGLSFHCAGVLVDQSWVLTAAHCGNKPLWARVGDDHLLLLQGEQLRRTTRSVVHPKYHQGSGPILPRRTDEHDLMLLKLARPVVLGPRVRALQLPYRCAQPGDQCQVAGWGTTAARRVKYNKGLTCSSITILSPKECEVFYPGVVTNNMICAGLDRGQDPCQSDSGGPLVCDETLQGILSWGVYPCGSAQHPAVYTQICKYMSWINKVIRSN
UniProt O43731: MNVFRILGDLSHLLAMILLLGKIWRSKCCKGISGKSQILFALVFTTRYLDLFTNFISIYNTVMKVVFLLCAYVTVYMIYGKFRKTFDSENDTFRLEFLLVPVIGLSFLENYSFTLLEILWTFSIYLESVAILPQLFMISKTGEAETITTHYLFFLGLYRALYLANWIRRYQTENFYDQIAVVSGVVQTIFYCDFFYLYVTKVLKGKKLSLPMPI
UniProt O15550, whole entry, looked up: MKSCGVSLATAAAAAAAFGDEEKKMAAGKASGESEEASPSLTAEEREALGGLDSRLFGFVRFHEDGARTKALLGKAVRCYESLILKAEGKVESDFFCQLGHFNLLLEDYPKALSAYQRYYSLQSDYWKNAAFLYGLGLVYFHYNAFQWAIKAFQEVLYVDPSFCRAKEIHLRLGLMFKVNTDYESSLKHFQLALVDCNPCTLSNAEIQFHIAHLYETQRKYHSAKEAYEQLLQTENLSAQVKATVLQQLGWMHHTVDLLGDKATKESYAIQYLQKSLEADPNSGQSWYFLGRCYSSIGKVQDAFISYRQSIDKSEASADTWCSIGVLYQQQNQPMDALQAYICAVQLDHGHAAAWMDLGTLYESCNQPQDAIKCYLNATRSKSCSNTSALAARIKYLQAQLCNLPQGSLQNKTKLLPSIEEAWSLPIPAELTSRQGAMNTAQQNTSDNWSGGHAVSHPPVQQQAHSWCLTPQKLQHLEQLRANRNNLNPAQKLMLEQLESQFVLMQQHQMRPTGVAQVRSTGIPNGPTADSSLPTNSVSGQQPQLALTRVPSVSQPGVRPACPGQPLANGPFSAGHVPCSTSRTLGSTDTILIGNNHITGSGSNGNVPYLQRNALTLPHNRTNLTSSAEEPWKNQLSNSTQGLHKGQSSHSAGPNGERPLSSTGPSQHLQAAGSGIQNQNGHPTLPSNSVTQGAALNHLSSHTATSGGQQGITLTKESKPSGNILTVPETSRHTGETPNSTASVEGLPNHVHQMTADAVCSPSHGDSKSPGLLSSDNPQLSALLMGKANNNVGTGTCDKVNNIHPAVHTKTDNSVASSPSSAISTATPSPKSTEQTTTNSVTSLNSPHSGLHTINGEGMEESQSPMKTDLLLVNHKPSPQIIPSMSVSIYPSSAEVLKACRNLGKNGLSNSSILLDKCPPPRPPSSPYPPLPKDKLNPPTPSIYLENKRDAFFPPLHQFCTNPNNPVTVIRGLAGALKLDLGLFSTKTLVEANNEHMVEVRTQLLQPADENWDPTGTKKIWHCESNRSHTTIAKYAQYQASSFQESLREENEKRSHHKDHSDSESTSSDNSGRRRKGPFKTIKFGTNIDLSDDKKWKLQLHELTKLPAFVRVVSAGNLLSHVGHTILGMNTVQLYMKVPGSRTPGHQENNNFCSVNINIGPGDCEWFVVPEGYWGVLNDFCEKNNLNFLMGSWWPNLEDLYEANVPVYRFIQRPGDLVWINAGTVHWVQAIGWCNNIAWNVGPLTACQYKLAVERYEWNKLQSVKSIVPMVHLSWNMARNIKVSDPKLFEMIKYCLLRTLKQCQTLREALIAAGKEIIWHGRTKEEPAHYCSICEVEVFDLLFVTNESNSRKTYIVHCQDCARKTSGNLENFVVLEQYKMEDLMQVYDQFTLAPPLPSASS
UniProt Q5JYT7: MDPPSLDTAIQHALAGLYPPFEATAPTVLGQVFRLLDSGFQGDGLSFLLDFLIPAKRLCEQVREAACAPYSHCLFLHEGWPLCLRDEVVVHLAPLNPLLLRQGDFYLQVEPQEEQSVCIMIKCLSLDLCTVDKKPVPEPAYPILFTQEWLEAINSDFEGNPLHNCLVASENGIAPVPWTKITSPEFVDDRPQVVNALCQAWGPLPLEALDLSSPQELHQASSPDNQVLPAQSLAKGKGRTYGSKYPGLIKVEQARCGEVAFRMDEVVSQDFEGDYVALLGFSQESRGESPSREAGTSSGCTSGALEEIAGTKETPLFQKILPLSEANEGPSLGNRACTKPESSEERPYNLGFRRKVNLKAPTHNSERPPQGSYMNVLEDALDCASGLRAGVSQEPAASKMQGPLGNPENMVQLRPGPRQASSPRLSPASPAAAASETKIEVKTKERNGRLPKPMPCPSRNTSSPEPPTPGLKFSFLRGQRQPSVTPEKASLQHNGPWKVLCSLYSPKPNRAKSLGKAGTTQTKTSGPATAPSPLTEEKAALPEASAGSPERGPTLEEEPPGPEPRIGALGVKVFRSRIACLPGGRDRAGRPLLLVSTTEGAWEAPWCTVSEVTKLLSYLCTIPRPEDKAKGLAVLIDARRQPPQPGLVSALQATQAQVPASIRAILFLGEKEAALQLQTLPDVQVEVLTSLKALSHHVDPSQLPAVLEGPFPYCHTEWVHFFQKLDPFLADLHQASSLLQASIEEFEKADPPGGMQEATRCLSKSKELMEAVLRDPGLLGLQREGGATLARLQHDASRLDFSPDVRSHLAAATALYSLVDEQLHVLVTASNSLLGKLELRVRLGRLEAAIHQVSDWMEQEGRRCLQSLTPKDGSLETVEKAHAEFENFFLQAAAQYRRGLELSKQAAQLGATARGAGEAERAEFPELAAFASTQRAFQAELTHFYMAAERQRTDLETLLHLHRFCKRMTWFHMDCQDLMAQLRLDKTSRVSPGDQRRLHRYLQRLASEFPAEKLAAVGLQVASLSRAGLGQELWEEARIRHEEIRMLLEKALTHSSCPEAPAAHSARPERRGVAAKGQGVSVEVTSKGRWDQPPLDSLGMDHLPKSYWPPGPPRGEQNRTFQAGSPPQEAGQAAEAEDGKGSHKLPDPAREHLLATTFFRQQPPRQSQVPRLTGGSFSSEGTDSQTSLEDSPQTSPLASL
UniProt Q9Y2M5: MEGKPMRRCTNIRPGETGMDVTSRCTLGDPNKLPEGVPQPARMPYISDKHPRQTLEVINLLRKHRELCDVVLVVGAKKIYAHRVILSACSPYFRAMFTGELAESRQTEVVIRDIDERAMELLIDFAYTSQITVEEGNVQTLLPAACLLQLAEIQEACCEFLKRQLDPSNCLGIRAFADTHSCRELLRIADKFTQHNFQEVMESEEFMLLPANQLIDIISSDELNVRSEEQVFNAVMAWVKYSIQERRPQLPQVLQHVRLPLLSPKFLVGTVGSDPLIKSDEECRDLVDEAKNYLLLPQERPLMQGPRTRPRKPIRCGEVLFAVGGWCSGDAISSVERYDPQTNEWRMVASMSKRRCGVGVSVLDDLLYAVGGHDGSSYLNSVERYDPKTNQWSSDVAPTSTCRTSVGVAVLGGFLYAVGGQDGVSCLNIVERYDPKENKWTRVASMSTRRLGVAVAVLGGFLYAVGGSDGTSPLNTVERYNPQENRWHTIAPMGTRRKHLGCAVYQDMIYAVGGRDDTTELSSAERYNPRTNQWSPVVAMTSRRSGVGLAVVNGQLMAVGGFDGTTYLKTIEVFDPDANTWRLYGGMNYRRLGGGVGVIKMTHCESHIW
UniProt Q96L93: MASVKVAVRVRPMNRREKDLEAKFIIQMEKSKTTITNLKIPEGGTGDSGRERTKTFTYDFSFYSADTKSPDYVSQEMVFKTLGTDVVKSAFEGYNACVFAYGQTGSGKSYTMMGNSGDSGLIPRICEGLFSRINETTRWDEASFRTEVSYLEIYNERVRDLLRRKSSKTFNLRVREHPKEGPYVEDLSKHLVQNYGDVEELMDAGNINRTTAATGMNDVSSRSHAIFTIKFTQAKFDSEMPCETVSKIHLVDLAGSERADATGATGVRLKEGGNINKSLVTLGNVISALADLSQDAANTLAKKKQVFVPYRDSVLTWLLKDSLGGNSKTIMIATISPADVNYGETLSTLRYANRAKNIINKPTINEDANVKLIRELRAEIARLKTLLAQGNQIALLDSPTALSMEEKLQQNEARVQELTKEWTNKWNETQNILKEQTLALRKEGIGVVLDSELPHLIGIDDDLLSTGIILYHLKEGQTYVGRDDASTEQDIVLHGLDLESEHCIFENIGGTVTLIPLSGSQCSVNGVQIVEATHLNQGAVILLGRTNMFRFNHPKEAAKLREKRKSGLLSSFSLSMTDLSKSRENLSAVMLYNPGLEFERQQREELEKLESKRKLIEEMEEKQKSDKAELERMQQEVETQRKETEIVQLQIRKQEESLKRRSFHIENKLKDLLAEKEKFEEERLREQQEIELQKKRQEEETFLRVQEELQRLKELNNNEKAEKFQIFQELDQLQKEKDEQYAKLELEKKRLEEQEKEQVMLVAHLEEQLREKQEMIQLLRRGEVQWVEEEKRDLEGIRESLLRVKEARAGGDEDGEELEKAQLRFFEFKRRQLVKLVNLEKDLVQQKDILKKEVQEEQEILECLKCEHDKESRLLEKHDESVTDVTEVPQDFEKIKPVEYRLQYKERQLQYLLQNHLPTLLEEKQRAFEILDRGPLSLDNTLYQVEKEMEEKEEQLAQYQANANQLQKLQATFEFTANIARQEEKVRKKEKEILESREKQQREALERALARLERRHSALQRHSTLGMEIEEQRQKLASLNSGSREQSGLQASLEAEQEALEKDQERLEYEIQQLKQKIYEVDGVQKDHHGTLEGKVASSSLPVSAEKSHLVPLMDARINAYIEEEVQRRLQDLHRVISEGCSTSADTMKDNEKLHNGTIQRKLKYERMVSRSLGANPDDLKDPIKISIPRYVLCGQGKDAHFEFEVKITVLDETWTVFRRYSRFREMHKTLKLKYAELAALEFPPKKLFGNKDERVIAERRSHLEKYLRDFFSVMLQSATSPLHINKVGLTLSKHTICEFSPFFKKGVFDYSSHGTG
UniProt Q96MP8: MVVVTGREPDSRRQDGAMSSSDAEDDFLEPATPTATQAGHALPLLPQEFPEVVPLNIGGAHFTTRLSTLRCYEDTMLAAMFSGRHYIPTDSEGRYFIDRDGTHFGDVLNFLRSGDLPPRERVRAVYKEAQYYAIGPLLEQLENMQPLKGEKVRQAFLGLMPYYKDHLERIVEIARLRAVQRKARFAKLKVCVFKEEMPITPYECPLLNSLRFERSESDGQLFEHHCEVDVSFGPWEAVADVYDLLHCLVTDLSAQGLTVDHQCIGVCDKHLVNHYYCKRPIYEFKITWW
UniProt Q13601: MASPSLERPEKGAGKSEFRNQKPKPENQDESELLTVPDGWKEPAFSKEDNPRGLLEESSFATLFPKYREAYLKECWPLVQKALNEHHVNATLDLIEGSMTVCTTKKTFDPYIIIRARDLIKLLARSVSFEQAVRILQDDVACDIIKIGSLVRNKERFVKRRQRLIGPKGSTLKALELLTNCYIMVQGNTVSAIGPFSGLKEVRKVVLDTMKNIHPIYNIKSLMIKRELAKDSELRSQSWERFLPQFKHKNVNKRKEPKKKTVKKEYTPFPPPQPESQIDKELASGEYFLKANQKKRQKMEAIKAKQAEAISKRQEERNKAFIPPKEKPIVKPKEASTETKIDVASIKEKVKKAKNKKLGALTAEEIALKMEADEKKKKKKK
UniProt O95235: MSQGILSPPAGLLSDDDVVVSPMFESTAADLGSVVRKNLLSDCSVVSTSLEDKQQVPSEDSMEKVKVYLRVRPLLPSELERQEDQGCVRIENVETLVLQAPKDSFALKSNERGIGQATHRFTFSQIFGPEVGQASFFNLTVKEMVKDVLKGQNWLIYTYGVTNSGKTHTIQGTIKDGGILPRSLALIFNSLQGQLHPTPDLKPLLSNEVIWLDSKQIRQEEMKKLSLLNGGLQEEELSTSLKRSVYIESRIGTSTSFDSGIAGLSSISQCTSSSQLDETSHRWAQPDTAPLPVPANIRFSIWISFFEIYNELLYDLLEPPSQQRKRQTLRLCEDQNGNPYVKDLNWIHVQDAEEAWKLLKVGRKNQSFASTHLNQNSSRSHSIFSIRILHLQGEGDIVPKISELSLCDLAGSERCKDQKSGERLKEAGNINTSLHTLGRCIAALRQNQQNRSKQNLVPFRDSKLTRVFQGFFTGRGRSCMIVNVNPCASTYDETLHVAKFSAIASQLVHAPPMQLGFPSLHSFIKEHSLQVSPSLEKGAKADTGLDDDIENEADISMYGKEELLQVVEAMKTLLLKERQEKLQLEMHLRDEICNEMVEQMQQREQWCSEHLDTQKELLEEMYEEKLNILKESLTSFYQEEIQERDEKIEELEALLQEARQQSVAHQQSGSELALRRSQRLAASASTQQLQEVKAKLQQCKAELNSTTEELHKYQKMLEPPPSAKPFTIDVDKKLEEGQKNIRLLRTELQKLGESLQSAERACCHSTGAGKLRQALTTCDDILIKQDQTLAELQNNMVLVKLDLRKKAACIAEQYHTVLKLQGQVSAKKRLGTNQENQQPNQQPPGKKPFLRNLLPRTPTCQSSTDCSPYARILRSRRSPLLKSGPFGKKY

How the values were obtained:
Assay in all cases: log2 fold change, soluble protein after heating vs DMSO (PISA); higher = thermal stabilisation; K562 cells, 10 uM, 30 min; active = over 0.2 and 3.5 SD of the protein, either way, in both replicates (recomputed)
[1] = compound: NC(=O)Nc1cc(-c2cccc(F)c2)sc1C(=O)N[C@H]1CCCNC1
Procedure, shortened: (§1)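 Values are thermal stability changes relative to control samples and are taken from duplicates. They are stated as log2 fold changes. Before quantification by TMTpro 16plex LC-MS/MS with equalised channel sums, K562 cells at 2×10^6 cells/mL were treated with 10 μM compound for 30 min, heated in aliquots for 3 min across 48°C-58°C, pooled, extracted in PBS with 0.5% NP-40 at 4°C, and centrifuged at 21,000xg for 90 min to give the soluble supernatant.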

[2] = compound: NCC(=O)Nc1ccc(-n2nc(C(F)(F)F)cc2-c2ccc3c(ccc4ccccc43)c2)cc1
Procedure, shortened: as §1

[3] = compound: Nc1ccccc1NC(=O)c1ccc(CNC(=O)OCc2cccnc2)cc1 [entinostat]
Procedure, shortened: as §1

[4] = compound: O=C1NC(=O)C(c2cnc3ccccn23)=C1c1cn2c3c(cc(F)cc13)CN(C(=O)N1CCCCC1)CC2
Procedure, shortened: as §1

[5] = compound: O=C(CCCCCCNC(=O)c1cnc(N(c2ccccc2)c2ccccc2Cl)nc1)NO [citarinostat]
Procedure, shortened: as §1

[6] = compound: c1cc(OCCN2CCCCC2)cc(-c2n[nH]c3ccc(-c4nnc[nH]4)cc23)c1
Procedure, shortened: as §1

[7] = compound: NC1(c2ccc(-c3nc4ccn5c(=O)[nH]nc5c4cc3-c3ccccc3)cc2)CCC1
Procedure, shortened: as §1

[8] = compound: O=C(CCCCCCC(=O)Nc1ccccc1)NO [vorinostat]
Procedure, shortened: as §1

[9] = compound: O=C(O)c1ccc2c(c1)nc(Nc1cccc(Cl)c1)c1ccncc12 [silmitasertib]
Procedure, shortened: as §1

[10] = compound: NC(=O)c1cnc(N[C@@H]2CCCC[C@@H]2N)nc1Nc1cccc(-n2nccn2)c1
Procedure, shortened: as §1

Measured: log2 fold change

KIDINS220 isoform 2 (UniProt Q9ULH0)
inactive: [1] -0.26 | [2] -0.402 | [3] -0.211 | [4] -0.291

JMJD7 (UniProt P0C870)
inactive: [1] -0.125 | [3] 0.111 | [5] 0.063 | [4] -0.142 | [6] -0.154

KCNK5 (UniProt O95279)
inactive: [1] -0.066 | [7] 0.16 | [3] 0.031 | [8] -0.102 | [5] 0.198 | [9] 0.093 | [4] 0.004 | [6] 0.005

JUN (UniProt P05412)
inactive: [1] -0.286 | [7] 0.092 | [3] -0.094 | [5] -0.124 | [9] 0.039 | [6] 0.197

KDM2B (UniProt Q8NHM5)
inactive: [1] -0.196 | [3] 0.143

KLC1 isoform 3 (UniProt Q07866)
inactive: [10] -0.129

KIN (UniProt O60870)
inactive: [1] -0.009 | [3] -0.098 | [8] 0.07

KNL1 (UniProt Q8NG31)
inactive: [1] 0.088 | [7] -0.023 | [3] 0.007 | [8] 0.109 | [5] 0.168 | [9] -0.059 | [4] 0.106 | [6] -0.031

KDM2A (UniProt Q9Y2K7)
inactive: [1] 0.137 | [7] -0.14 | [2] -0.017 | [3] 0.151 | [8] 0.103 | [5] 0.018 | [9] -0.037 | [4] -0.02 | [6] -0.114

KIF21B (UniProt O75037)
inactive: [4] -0.101

KLK10 (UniProt O43240)
inactive: [5] -0.179 | [6] 0.577

KDELR3 (UniProt O43731)
inactive: [10] 0.109 | [7] -0.061 | [9] 0.097

KDM6A (UniProt O15550)
inactive: [10] -0.035 | [2] -0.047 | [4] 0.165

KLHDC10 (UniProt Q6PID8)
inactive: [8] 0.131

KIAA1755 (UniProt Q5JYT7)
inactive: [2] 0.022 | [5] 0.063 | [4] 0.179 | [6] -0.03

KIF20B isoform 2 (UniProt Q96Q89)
inactive: [8] -0.042

KIAA0040 (UniProt Q15053)
inactive: [10] -0.144 | [7] 0.182 | [2] -0.094 | [9] -0.04

KCTD1 (UniProt Q719H9)
inactive: [2] -0.037 | [4] -0.099

KIFAP3 (UniProt Q92845)
inactive: [5] -0.056 | [4] 0.073 | [6] -0.135

KIF1B isoform 3 (UniProt O60333)
inactive: [7] -0.073 | [2] -0.389 | [5] 0.043 | [9] -0.057 | [6] -0.55

KLHL20 (UniProt Q9Y2M5)
inactive: [10] -0.156 | [7] 0.02 | [2] -0.103 | [8] 0.122 | [9] 0.07

KIF16B isoform 2 (UniProt Q96L93)
inactive: [10] 0.027 | [5] -0.022 | [6] 0

KCTD7 (UniProt Q96MP8)
inactive: [7] -0.091 | [8] -0.086 | [9] 0.074

KMT2E (UniProt Q8IZD2)
inactive: [4] -0.177

KIAA0754 (UniProt O94854)
inactive: [4] 0.293

KRR1 (UniProt Q13601)
inactive: [8] 0.135 | [5] 0.026 | [6] -0.063

KLHL36 (UniProt Q8N4N3)
inactive: [7] 0.002 | [5] -0.134 | [9] 0.13 | [4] -0.086 | [6] -0.104

2 successive records from above, quoted:
KRR1 (UniProt Q13601)
inactive: [8] 0.135 | [5] 0.026 | [6] -0.063

KLHL36 (UniProt Q8N4N3)
inactive: [7] 0.002 | [5] -0.134 | [9] 0.13 | [4] -0.086 | [6] -0.104

Further results:

KIFC1 (UniProt Q9BW19)
inactive: [10] 0.079 | [7] 0.201 | [8] 0.298 | [9] -0.291 | [4] 0.291

JCHAIN (UniProt P01591)
inactive: [7] -0.165 | [5] 0.714 | [9] 0.894 | [6] 0.517

JOSD1 (UniProt Q15040)
inactive: [10] -0.045 | [4] -0.055

ITSN2 (UniProt Q9NZM3)
inactive: [8] -0.07 | [5] 0.143 | [6] -0.129

KIZ (UniProt Q2M2Z5)
inactive: [10] -0.067 | [8] 0.137 | [5] -0.094 | [6] 0.045

KDM3A (UniProt Q9Y4C1)
inactive: [8] 0.03 | [5] -0.142 | [6] 0.035

KCNH2 (UniProt Q12809)
inactive: [2] -0.25 | [9] 0.286 | [4] 0.177

KAT6B (UniProt Q8WYB5)
inactive: [10] -0.033 | [7] -0.008 | [2] 0.021 | [8] 0.069 | [5] 0.111 | [9] 0.081 | [6] -0.062

KIF20A (UniProt O95235)
inactive: [10] -0.052 | [4] 0.184

KALRN (UniProt O60229)
inactive: [5] 0.103 | [4] -0.023 | [6] 0.098

KHSRP (UniProt M0R3J3)
inactive: [4] -0.072

KLHL42 (UniProt Q9P2K6)
inactive: [4] -0.107

KLHL17 (UniProt Q6TDP4)
inactive: [4] -0.072

KRT10, A0A1B0GVI3
inactive: [7] -0.014 | [8] 0.066 | [9] -0.038

KIF4A (UniProt O95239)
inactive: [2] -0.13 | [8] 0.149 | [5] 0.054 | [6] -0.215
